Consider 7 molecules from PMC7947682.

These are yes or no findings as the source states them, for the method shown. In cells and extracts the contact can be indirect. A yes stands for co-enrichment or nearness to the bait. Other partners may have been found. Sequences can lack the tags named with a protein.

This assay addresses T1, Avi-FOXA2 (UniProt Q9Y261).
T1 sequence (chain, biotin on the Avi tag (biotin tagging system with co-expressed E. coli BirA)): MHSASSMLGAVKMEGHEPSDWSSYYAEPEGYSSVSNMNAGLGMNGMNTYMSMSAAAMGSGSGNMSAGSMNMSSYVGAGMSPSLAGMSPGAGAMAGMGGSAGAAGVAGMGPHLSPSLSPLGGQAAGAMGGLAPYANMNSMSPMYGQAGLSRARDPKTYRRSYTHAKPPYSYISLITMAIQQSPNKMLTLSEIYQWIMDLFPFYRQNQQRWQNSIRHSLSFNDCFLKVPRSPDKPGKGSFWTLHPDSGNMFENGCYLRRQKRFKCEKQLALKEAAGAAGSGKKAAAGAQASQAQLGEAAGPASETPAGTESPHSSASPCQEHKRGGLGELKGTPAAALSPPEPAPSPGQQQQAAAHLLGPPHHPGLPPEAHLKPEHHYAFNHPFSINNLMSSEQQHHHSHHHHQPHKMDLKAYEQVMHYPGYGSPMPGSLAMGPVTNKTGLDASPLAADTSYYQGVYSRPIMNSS
The assay can be described thus: affinity purification with mass spectrometry; MCF-7 cells transfected with pAvi-FOXA2 and pEF1-BirA; lysate (150 mM NaCl, 1% NP-40, 50 mM Tris-HCl pH 7.4) on streptavidin resin overnight, washed four times; SDS-PAGE, trypsin digest, LTQ Orbitrap Velos.

B1: Zinc finger CCCH domain-containing protein 18 (Fragment) (protein, UniProt Q86VM9 1-953)
chain: MDVAESPERDPHSPEDEEQPQGLSDDDILRDSGSDQDLDGAGVRASDLEDEESAARGPSQEEEDNHSDEEDRASEPKSQDQDSEVNELSRGPTSSPCEEEGDEGEEDRTSDLRDEASSVTRELDEHELDYDEEVPEEPAPAVQEDEAEKAGAEDDEEKGEGTPREEGKAGVQSVGEKESLEAAKEKKKEDDDGEIDDGEIDDDDLEEGEVKDPSDRKVRPRPTCRFFMKGNCTWGMNCRFIHPGVNDKGNYSLITKADPFPPNGAPPLGPHPLMPANPWGGPVVDEILPPPPPEPPTESAWERGLRHAKEVLKKATIRKEQEPDFEEKRFTVTIGEDEREFDKENEVFRDWNSRIPRDVRDTVLEPYADPYYDYEIERFWRGGQYENFRVQYTETEPYHNYRERERERERENRQRERERERERDRERERRQRERERERERERDKERQRRKEEWERERAKRDEKDRQHRDRDREKEREKEKGKPKPRSPQPPSRQAEPPKKEAATTGPQVKRADEWKDPWRRSKSPKKKLGVSVSPSRARRRRKTSASSASASNSSRSSSRSSSYSGSGSSRSRSRSSSYSSYSSRSSRHSSFSGSRSRSRSFSSSPSPSPTPSPHRPSIRTKGEPAPPPGKAGEKSVKKPAPPPAPPQATKTTAPVPEPTKPGDPREARRKERPARTPPRRRTLSGSGSGSGSSYSGSSSRSRSLSVSSVSSVSSATSSSSSAHSVDSEDMYADLASPVSSASSRSPAPAQTRKEKGKSKKEDGVKEEKRKRDSSTQPPKSAKPPAGGKSSQQPSTPQQAPPGQPQQGTFVAHKEIKLTLLNKAADKGSRKRYEPSDKDRQSPPPAKRPNTSPDRGSRDRKSGGRLGSPKPERQRGQNSKAPAAPADRKRQLSPQSKSSSKVTSVPGKASDPGAASTKSGKASTLSRREELLKQLKAVEDAIARKRAKIPGKA
As to B1, the binding result was “binds”.

B2: Methylcrotonoyl-CoA carboxylase beta chain, mitochondrial (Fragment) (protein, UniProt Q9HCC0 23-563)
chain: YHGDSVASLGTQPDLGSALYQENYKQMKALVNQLHERVEHIKLGGGEKARALHISRGKLLPRERIDNLIDPGSPFLELSQFAGYQLYDNEEVPGGGIITGIGRVSGVECMIIANDATVKGGAYYPVTVKKQLRAQEIAMQNRLPCIYLVDSGGAYLPRQADVFPDRDHFGRTFYNQAIMSSKNIAQIAVVMGSCTAGGAYVPAMADENIIVRKQGTIFLAGPPLVKAATGEEVSAEDLGGADLHCRKSGVSDHWALDDHHALHLTRKVVRNLNYQKKLDVTIEPSEEPLFPADELYGIVGANLKRSFDVREVIARIVDGSRFTEFKAFYGDTLVTGFARIFGYPVGIVGNNGVLFSESAKKGTHFVQLCCQRNIPLLFLQNITGFMVGREYEAEGIAKDGAKMVAAVACAQVPKITLIIGGSYGAGNYGMCGRAYSPRFLYIWPNARISVMGGEQAANVLATITKDQRAREGKQFSSADEAALKEPIIKKFEEEGNPYYSSARVWDDGIIDPADTRLVLGLSFSAALNAPIEKTDFGIFRM
Regarding B2, the binding entry was “binds”.

B3: Melanoma-associated antigen D1 (protein, UniProt Q9Y5V3 1-778)
chain: MAQKMDCGAGLLGFQAEASVEDSALLMQTLMEAIQISEAPPTNQATAAASPQSSQPPTANEMADIQVSAAAARPKSAFKVQNATTKGPNGVYDFSQAHNAKDVPNTQPKAAFKSQNATPKGPNAAYDFSQAATTGELAANKSEMAFKAQNATTKVGPNATYNFSQSLNANDLANSRPKTPFKAWNDTTKAPTADTQTQNVNQAKMATSQADIETDPGISEPDGATAQTSADGSQAQNLESRTIIRGKRTRKINNLNVEENSSGDQRRAPLAAGTWRSAPVPVTTQNPPGAPPNVLWQTPLAWQNPSGWQNQTARQTPPARQSPPARQTPPAWQNPVAWQNPVIWPNPVIWQNPVIWPNPIVWPGPVVWPNPLAWQNPPGWQTPPGWQTPPGWQGPPDWQGPPDWPLPPDWPLPPDWPLPTDWPLPPDWIPADWPIPPDWQNLRPSPNLRPSPNSRASQNPGAAQPRDVALLQERANKLVKYLMLKDYTKVPIKRSEMLRDIIREYTDVYPEIIERACFVLEKKFGIQLKEIDKEEHLYILISTPESLAGILGTTKDTPKLGLLLVILGVIFMNGNRASEAVLWEALRKMGLRPGVRHPLLGDLRKLLTYEFVKQKYLDYRRVPNSNPPEYEFLWGLRSYHETSKMKVLRFIAEVQKRDPRDWTAQFMEAADEALDALDAAAAEAEARAEARTRMGIGDEAVSGPWSWDDIEFELLTWDEEGDFGDPWSRIPFTFWARYHQNARSRFPQTFAGPIIGPGGTASANFAANFGAIGFFWVE
Consider B3, for which the binding entry is listed as “binds”.

B4: Isoform 2 of Arf-GAP domain and FG repeat-containing protein 1 (protein, UniProt P52594-2 1-522)
chain: MAASAKRKQEEKHLKMLRDMTGLPHNRKCFDCDQRGPTYVNMTVGSFVCTSCSGSLRGLNPPHRVKSISMTTFTQQEIEFLQKHGNEVCKQIWLGLFDDRSSAIPDFRDPQKVKEFLQEKYEKKRWYVPPEQAKVVASVHASISGSSASSTSSTPEVKPLKSLLGDSAPTLHLNKGTPSQSPVVGRSQGQQQEKKQFDLLSDLGSDIFAAPAPQSTATANFANFAHFNSHAGGSAASVNANFAHFDNFPKSSSADFGTFNTSQSHQTASAVSKVSTNKAGLQTADKYAALANLDNIFSAGQGGDQGSGFGTTGKAPVGSVVSVPSQSSASSDKYAALAELDSVFSSAATSSNAYTSTSNASSNVFGTVPVVASAQTQPASSSVPAPFGATPSTNPFVAAAGPSVASSTNPFQTNARGATAATFGTASMSMPTGFGTPAPYSLPTSFSGSFQQPAFPAQAAFPQQTAFSQQPNGAGFAAFGQTKPVVTPFGQVAAAGVSSNPFMTGAPTGQFPTGSSSTNPFL
Regarding B4, the binding result is “binds”.

B5: Isoform 3 of CREB-regulated transcription coactivator 3 (protein, UniProt Q6UUV7-3 1-618)
chain: MAASPGSGSANPRKFSEKIALHTQRQAEETRAFEQLMTDLTLSRVQFQKLQQLRLTQYHGGSLPNVSQLRSSASEFQPSFHQADNVRGTRHHGLVERPSRNRFHPLHRRSGDKPGRQFDGSAFGANYSSQPLDESWPRQQPPWKDEKHPGFRLTSALNRTNSDSALHTSALSTKPQDPYGGGGQSAWPAPYMGFCDGENNGHGEVASFPGPLKEENLLNVPKPLPKQLWETKEIQSLSGRPRSCDVGGGNAFPHNGQNLGLSPFLGTLNTGGSLPDLTNLHYSTPLPASLDTTDHHFGSMSVGNSVNNIPAAMTHLGIRSSSGLQSSRSNPSIQATLNKTVLSSSLNNHPQTSVPNASALHPSLRLFSLSNPSLSTTNLSGPSRRRQPPVSPLTLSPGPEAHQGFSRQLSSTSPLAPYPTSQMVSSDRSQLSFLPTEAQAQVSPPPPYPAPQELTQPLLQQPRAPEAPAQQPQAASSLPQSDFQLLPAQGSSLTNFFPDVGFDQQSMRPGPAFPQQVPLVQQGSRELQDSFHLRPSPYSNCGSLPNTILPDSSTSLFKDLNSALAGLPEVSLNVDTPFPLEEELQIEPLSLDGLNMLSDSSMGLLDPSVEETFRADRL
Take B5: the binding entry is given as “binds”.

B6: Isoform 1 of Histone-arginine methyltransferase CARM1 (protein, UniProt Q86X55-1 1-585)
chain: MAAAAAAVGPGAGGAGSAVPGGAGPCATVSVFPGARLLTIGDANGEIQRHAEQQALRLEVRAGPDSAGIALYSHEDVCVFKCSVSRETECSRVGKQSFIITLGCNSVLIQFATPNDFCSFYNILKTCRGHTLERSVFSERTEESSAVQYFQFYGYLSQQQNMMQDYVRTGTYQRAILQNHTDFKDKIVLDVGCGSGILSFFAAQAGARKIYAVEASTMAQHAEVLVKSNNLTDRIVVIPGKVEEVSLPEQVDIIISEPMGYMLFNERMLESYLHAKKYLKPSGNMFPTIGDVHLAPFTDEQLYMEQFTKANFWYQPSFHGVDLSALRGAAVDEYFRQPVVDTFDIRILMAKSVKYTVNFLEAKEGDLHRIEIPFKFHMLHSGLVHGLAFWFDVAFIGSIMTVWLSTAPTEPLTHWYQVRCLFQSPLFAKAGDTLSGTCLLIANKRQSYDISIVAQVDQTGSKSSNLLDLKNPFFRYTGTTPSPPPGSHYTSPSENMWNTGSTYNLSSGMAVAGMPTAYDLSSVIASGSSVGHNNLIPLGSSGAQGSGGGSTSAHYAVNSQFTMGGPAISMASPMSIPTNTMHYGS
Take B6: the binding result is recorded as “binds”.

B7: DDB1- and CUL4-associated factor 7 (protein, UniProt P61962 1-342)
chain: MSLHGKRKEIYKYEAPWTVYAMNWSVRPDKRFRLALGSFVEEYNNKVQLVGLDEESSEFICRNTFDHPYPTTKLMWIPDTKGVYPDLLATSGDYLRVWRVGETETRLECLLNNNKNSDFCAPLTSFDWNEVDPYLLGTSSIDTTCTIWGLETGQVLGRVNLVSGHVKTQLIAHDKEVYDIAFSRAGGGRDMFASVGADGSVRMFDLRHLEHSTIIYEDPQHHPLLRLCWNKQDPNYLATMAMDGMEVVILDVRVPCTPVARLNNHRACVNGIAWAPHSSCHICTAADDHQALIWDIQQMPRAIEDPILAYTAEGEINNVQWASTQPDWIAICYNNCLEILRV
In the case of B7, the binding entry was “binds”.
